# This is one part of the list.
# B1: SUN4 (Saccharomyces cerevisiae), P53616 (protein)
# chain: MGSSHHHHHHSSGLVPRGSHNGSIYGDLADFSGPYEKFEDGTIPCGQFPSGQGVIPISWLDEGGWSGVENTDTSTGGSCKEGSYCSYACQPGMSKTQWPSDQPSDGRSIGGLLCKDGYLYRSNTDTDYLCEWGVDAAYVVSELSNDVAICRTDYPGTENMVIPTYVQAGDSLPLTVVDQDTYYTWQGLKTSAAYYVNNAGISVEDACVWGSSSSGVGNWAPLNFGAGSSDGVAYLSLIPNPNNGNALNFNVKIVAADDSSTVNGECIYENGSFSGGSDGCTVSVTAGKAKFVLYN
# Key:
# Assay in all cases: glycan array binding signal (z-score within array); higher = stronger binding
# Conditions in all cases: glycan notation: IUPAC condensed, linker removed; mutation: Q318A
# [1] = biological target: Gal(b1-4)GalNAc(b1-3)[Fuc(a1-2)]Gal(b1-4)GlcNAc
# Outline: (§1)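 Columns mapping to the same glycan were averaged after glycan names were converted to IUPAC-condensed notation. The data come from 3228 arrays in the Consortium for Functional Glycomics database, limited to those with an available protein sequence. Binding is reported as a within-array Z-score averaged across arrays of one protein sequence and across linkers.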
# Gal(b1-4)Glc = biological target: Gal(b1-4)Glc
# Outline: as §1
# Gal(b1-4)Glc6S = biological target: Gal(b1-4)Glc6S
# Outline: as §1
# Gal(b1-4)GlcNAc = biological target: Gal(b1-4)GlcNAc
# Outline: as §1
# [2] = biological target: Gal(b1-4)GlcNAc(a1-6)Gal(b1-4)GlcNAc
# Outline: as §1
# Gal(b1-4)GlcNAc(b1-2)Man = biological target: Gal(b1-4)GlcNAc(b1-2)Man
# Outline: as §1
# [3] = biological target: Gal(b1-4)GlcNAc(b1-2)Man(a1-3)Man(b1-4)GlcNAc(b1-4)GlcNAc
# Outline: as §1
# [4] = biological target: Gal(b1-4)GlcNAc(b1-2)Man(a1-3)[Gal(b1-4)GlcNAc(b1-2)Man(a1-6)]Man(b1-4)GlcNAc(b1-4)GlcNAc
# Outline: as §1
# [5] = biological target: Gal(b1-4)GlcNAc(b1-2)Man(a1-3)[Gal(b1-4)GlcNAc(b1-2)Man(a1-6)]Man(b1-4)GlcNAc(b1-4)[Fuc(a1-6)]GlcNAc
# Outline: as §1
# [6] = biological target: Gal(b1-4)GlcNAc(b1-2)Man(a1-3)[Gal(b1-4)GlcNAc(b1-2)Man(a1-6)][Gal(b1-4)GlcNAc(b1-4)]Man(b1-4)GlcNAc(b1-4)[Fuc(a1-6)]GlcNAc
# Outline: as §1
# [7] = biological target: Gal(b1-4)GlcNAc(b1-2)Man(a1-3)[Gal(b1-4)GlcNAc(b1-2)Man(a1-6)][GlcNAc(b1-4)]Man(b1-4)GlcNAc(b1-4)[Fuc(a1-6)]GlcNAc
# Outline: as §1
# [8] = biological target: Gal(b1-4)GlcNAc(b1-2)Man(a1-3)[GlcNAc(b1-2)Man(a1-6)]Man(b1-4)GlcNAc(b1-4)GlcNAc
# Outline: as §1
# [9] = biological target: Gal(b1-4)GlcNAc(b1-2)Man(a1-3)[GlcNAc(b1-4)][Gal(b1-4)GlcNAc(b1-2)Man(a1-6)]Man(b1-4)GlcNAc(b1-4)GlcNAc
# Outline: as §1
# [10] = biological target: Gal(b1-4)GlcNAc(b1-2)Man(a1-3)[Man(a1-6)]Man(b1-4)GlcNAc(b1-4)GlcNAc
# Outline: as §1
# [11] = biological target: Gal(b1-4)GlcNAc(b1-2)Man(a1-6)Man(b1-4)GlcNAc(b1-4)GlcNAc
# Outline: as §1
# [12] = biological target: Gal(b1-4)GlcNAc(b1-2)Man(a1-6)[GlcNAc(b1-2)Man(a1-3)]Man(b1-4)GlcNAc(b1-4)GlcNAc
# Outline: as §1
# [13] = biological target: Gal(b1-4)GlcNAc(b1-2)Man(a1-6)[Man(a1-3)]Man(b1-4)GlcNAc(b1-4)GlcNAc
# Outline: as §1
# [14] = biological target: Gal(b1-4)GlcNAc(b1-2)[Gal(b1-4)GlcNAc(b1-4)]Man(a1-3)[Gal(b1-4)GlcNAc(b1-2)Man(a1-6)]Man(b1-4)GlcNAc(b1-4)GlcNAc
# Outline: as §1
# [15] = biological target: Gal(b1-4)GlcNAc(b1-2)[Gal(b1-4)GlcNAc(b1-4)]Man(a1-3)[Gal(b1-4)GlcNAc(b1-2)[Gal(b1-4)GlcNAc(b1-6)]Man(a1-6)]Man(b1-4)GlcNAc(b1-4)GlcNAc
# Outline: as §1
# [16] = biological target: Gal(b1-4)GlcNAc(b1-2)[Gal(b1-4)GlcNAc(b1-4)]Man(a1-3)[GlcNAc(b1-4)][Gal(b1-4)GlcNAc(b1-2)Man(a1-6)]Man(b1-4)GlcNAc(b1-4)GlcNAc
# Outline: as §1
# [17] = biological target: Gal(b1-4)GlcNAc(b1-2)[Gal(b1-4)GlcNAc(b1-4)]Man(a1-3)[GlcNAc(b1-4)][Gal(b1-4)GlcNAc(b1-2)[Gal(b1-4)GlcNAc(b1-6)]Man(a1-6)]Man(b1-4)GlcNAc(b1-4)GlcNAc
# Outline: as §1
# [18] = biological target: Gal(b1-4)GlcNAc(b1-2)[Gal(b1-4)GlcNAc(b1-6)]Man(a1-6)[Gal(b1-4)GlcNAc(b1-2)Man(a1-3)]Man(b1-4)GlcNAc(b1-4)GlcNAc
# Outline: as §1
# [19] = biological target: Gal(b1-4)GlcNAc(b1-2)[Gal(b1-4)GlcNAc(b1-6)]Man(a1-6)[Gal(b1-4)GlcNAc(b1-2)Man(a1-3)]Man(b1-4)GlcNAc(b1-4)[Fuc(a1-6)]GlcNAc
# Outline: as §1
# [20] = biological target: Gal(b1-4)GlcNAc(b1-2)[Gal(b1-4)GlcNAc(b1-6)]Man(a1-6)[GlcNAc(b1-4)][Gal(b1-4)GlcNAc(b1-2)Man(a1-3)]Man(b1-4)GlcNAc(b1-4)GlcNAc
# Outline: as §1
# [21] = biological target: Gal(b1-4)GlcNAc(b1-2)[Gal(b1-4)GlcNAc(b1-6)]Man(a1-6)[GlcNAc(b1-4)][Gal(b1-4)GlcNAc(b1-2)[Gal(b1-4)GlcNAc(b1-4)]Man(a1-3)]Man(b1-4)GlcNAc(b1-4)[Fuc(a1-6)]GlcNAc
# Outline: as §1
# [22] = biological target: Gal(b1-4)GlcNAc(b1-3)Gal(b1-3)GalNAc
# Outline: as §1
# [23] = biological target: Gal(b1-4)GlcNAc(b1-3)Gal(b1-3)GlcNAc
# Outline: as §1
# [24] = biological target: Gal(b1-4)GlcNAc(b1-3)Gal(b1-4)Glc
# Outline: as §1
# [25] = biological target: Gal(b1-4)GlcNAc(b1-3)Gal(b1-4)GlcNAc
# Outline: as §1
# [26] = biological target: Gal(b1-4)GlcNAc(b1-3)Gal(b1-4)GlcNAc(b1-2)Man(a1-3)[Gal(b1-4)GlcNAc(b1-3)Gal(b1-4)GlcNAc(b1-2)Man(a1-6)]Man(b1-4)GlcNAc(b1-4)GlcNAc
# Outline: as §1
# [27] = biological target: Gal(b1-4)GlcNAc(b1-3)Gal(b1-4)GlcNAc(b1-2)Man(a1-3)[Gal(b1-4)GlcNAc(b1-3)Gal(b1-4)GlcNAc(b1-2)Man(a1-6)]Man(b1-4)GlcNAc(b1-4)[Fuc(a1-6)]GlcNAc
# Outline: as §1
# [28] = biological target: Gal(b1-4)GlcNAc(b1-3)Gal(b1-4)GlcNAc(b1-2)[Gal(b1-4)GlcNAc(b1-3)Gal(b1-4)GlcNAc(b1-6)]Man(a1-6)[Gal(b1-4)GlcNAc(b1-3)Gal(b1-4)GlcNAc(b1-2)Man(a1-3)]Man(b1-4)GlcNAc(b1-4)GlcNAc
# Outline: as §1
# [29] = biological target: Gal(b1-4)GlcNAc(b1-3)Gal(b1-4)GlcNAc(b1-2)[Gal(b1-4)GlcNAc(b1-3)Gal(b1-4)GlcNAc(b1-6)]Man(a1-6)[Gal(b1-4)GlcNAc(b1-3)Gal(b1-4)GlcNAc(b1-2)Man(a1-3)]Man(b1-4)GlcNAc(b1-4)[Fuc(a1-6)]GlcNAc
# Outline: as §1
# [30] = biological target: Gal(b1-4)GlcNAc(b1-3)Gal(b1-4)GlcNAc(b1-3)Gal(b1-4)GlcNAc
# Outline: as §1
# [31] = biological target: Gal(b1-4)GlcNAc(b1-3)Gal(b1-4)GlcNAc(b1-3)Gal(b1-4)GlcNAc(b1-2)Man(a1-3)[Gal(b1-4)GlcNAc(b1-3)Gal(b1-4)GlcNAc(b1-3)Gal(b1-4)GlcNAc(b1-2)Man(a1-6)]Man(b1-4)GlcNAc(b1-4)GlcNAc
# Outline: as §1
# [32] = biological target: Gal(b1-4)GlcNAc(b1-3)Gal(b1-4)GlcNAc(b1-3)Gal(b1-4)GlcNAc(b1-2)Man(a1-3)[Gal(b1-4)GlcNAc(b1-3)Gal(b1-4)GlcNAc(b1-3)Gal(b1-4)GlcNAc(b1-2)Man(a1-6)]Man(b1-4)GlcNAc(b1-4)[Fuc(a1-6)]GlcNAc
# Outline: as §1
# [33] = biological target: Gal(b1-4)GlcNAc(b1-3)Gal(b1-4)GlcNAc(b1-3)Gal(b1-4)GlcNAc(b1-2)[Gal(b1-4)GlcNAc(b1-3)Gal(b1-4)GlcNAc(b1-3)Gal(b1-4)GlcNAc(b1-6)]Man(a1-6)[Gal(b1-4)GlcNAc(b1-3)Gal(b1-4)GlcNAc(b1-3)Gal(b1-4)GlcNAc(b1-2)Man(a1-3)]Man(b1-4)GlcNAc(b1-4)[Fuc(a1-6)]GlcNAc
# Outline: as §1
binder,measurement,setting,value
B1,glycan array binding signal (z-score),[1],-0.726
same,glycan array binding signal (z-score),Gal(b1-4)Glc,0.567
same,glycan array binding signal (z-score),Gal(b1-4)Glc6S,0.206
same,glycan array binding signal (z-score),Gal(b1-4)GlcNAc,-0.527
same,glycan array binding signal (z-score),[2],0.299
same,glycan array binding signal (z-score),Gal(b1-4)GlcNAc(b1-2)Man,0.857
same,glycan array binding signal (z-score),[3],-0.13
same,glycan array binding signal (z-score),[4],-0.273
same,glycan array binding signal (z-score),[5],0.438
same,glycan array binding signal (z-score),[6],-0.336
same,glycan array binding signal (z-score),[7],-0.281
same,glycan array binding signal (z-score),[8],-0.375
same,glycan array binding signal (z-score),[9],-0.624
same,glycan array binding signal (z-score),[10],1.47
same,glycan array binding signal (z-score),[11],-0.627
same,glycan array binding signal (z-score),[12],-1
same,glycan array binding signal (z-score),[13],1.2
same,glycan array binding signal (z-score),[14],-0.386
same,glycan array binding signal (z-score),[15],-0.928
same,glycan array binding signal (z-score),[16],-0.489
same,glycan array binding signal (z-score),[17],-0.441
same,glycan array binding signal (z-score),[18],-0.011
same,glycan array binding signal (z-score),[19],0.896
same,glycan array binding signal (z-score),[20],-0.239
same,glycan array binding signal (z-score),[21],0.832
same,glycan array binding signal (z-score),[22],-0.72
same,glycan array binding signal (z-score),[23],-0.867
same,glycan array binding signal (z-score),[24],-0.702
same,glycan array binding signal (z-score),[25],-0.633
same,glycan array binding signal (z-score),[26],0.914
same,glycan array binding signal (z-score),[27],0.318
same,glycan array binding signal (z-score),[28],0.817
same,glycan array binding signal (z-score),[29],-0.707
same,glycan array binding signal (z-score),[30],0.036
same,glycan array binding signal (z-score),[31],-0.249
same,glycan array binding signal (z-score),[32],-0.208
same,glycan array binding signal (z-score),[33],1.61

# 3 neighbouring records out of the list so far, for reference:
binder,measurement,setting,value
B1,glycan array binding signal (z-score),[24],-0.702
same,glycan array binding signal (z-score),[25],-0.633
same,glycan array binding signal (z-score),[26],0.914

# — the supplement of paper PMC8728848
